Values of other authors, collected in patent US20140364460A1, “USE OF FATOSTATIN FOR TREATING CANCER HAVING A p53 MUTATION” (THE TRUSTEES OF COLUMBIA UNIVERSITY IN THE CITY OF NEW YORK, priority 2012, published 2014).
At least one compound was matched to its structure with a doubt left.

System: tumor
Settings: mouse, after 21 days of treatment; cited from earlier work

CCC(C)(C)C(=O)O[C@H]1C[C@@H](C)C=C2C=C[C@H](C)[C@H](CC[C@@H]3C[C@@H](O)CC(=O)O3)[C@H]21 [simvastatin]
reduction of tumor size: about 40%
